Measured data: PubChem BioAssay AID743454 (Peter MacCallum Cancer Centre, 2014)

- Assay: 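Knock-downs lowering viability or raising caspase 3/7 activity in vorinostat-treated resistant cells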 (primary screen)
- Cell system: human HCT116-VR colon cancer cells, selected for vorinostat resistance
- Reagent: siRNA pool against human genes, 40 nM siRNA pool
- Duration: vorinostat for 24 h, read-out about 72 h after transfection
- Challenge: vorinostat at 2.5 µM final
- Read-out: 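Two measures, CellTiter-Fluor viability and luminescent caspase 3/7 activity, each as fold change against same-plate mock wells, mean of duplicates, then screen-wide robust z-score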
- Direction: viability robust z-score: higher = more viable cells than screen typical; caspase robust z-score: higher = more caspase 3/7 activity than screen typical
- Rule for the call: 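Hits are knock-downs in viability class RV1/RV2 or caspase class CA1/CA2, excluding ones that killed cells in the no-drug cell-count arm; hits then retested with single siRNAs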
This is an unselected part of about 18,000 deposited reagents. 450 of all reagents (2.5%) count as active. 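Single biological run; no consistent viability z cut-off exists, so the class columns, not z-scores, define the calls.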

Target gene | viability hit class | caspase hit class | viability robust z-score | caspase robust z-score | Outcome
CCDC134 | no change | no change | -2.09 | -0.06 | inactive
MC4R | no change | no change | 1.46 | -0.22 | inactive
DIDO1 | no change | no change | 1.12 | 0.42 | inactive
RPP25 | no change | no change | -0.57 | 0.5 | inactive
C10orf120 | no change | no change | -3.16 | 2.83 | inactive
GLRA1 | no change | no change | -0.34 | -0.36 | inactive
HRG | no change | no change | 0.02 | -0.18 | inactive
CRYL1 | no change | no change | 0.76 | -0.09 | inactive
MEIS2 | no change | no change | 1.08 | 1.23 | inactive
TRAF1 | no change | no change | -1.06 | 1.8 | inactive
NUP42 | no change | CA1 (caspase activation) | -0.07 | 5.57 | active
FANK1 | no change | no change | -1.23 | 0.16 | inactive
WNT16 | no change | no change | 1.12 | -0.21 | inactive
POLR3E | no change | no change | -1.62 | -0.54 | inactive
STAP1 | no change | no change | 0.02 | -0.92 | inactive
C1QTNF3 | no change | no change | -0.98 | -0.98 | inactive
NXPE4 | no change | no change | 1.59 | 0.48 | inactive
TREML1 | no change | no change | -1.06 | 1.43 | inactive
KIF20A | no change | no change | -0.52 | -0.43 | inactive
CD163 | no change | no change | -0.92 | 1.77 | inactive
ATP5F1D | no change | no change | 0.96 | -0.41 | inactive
UQCRQ | no change | no change | -2.7 | 5.19 | inactive
YARS2 | no change | no change | 0.3 | 0.72 | inactive
KRAS | no change | no change | -3.54 | 2.08 | inactive
TAC4 | no change | CA1 (caspase activation) | 1.84 | 5.45 | active
IGFBP3 | no change | no change | 0.82 | 1.57 | inactive
PPM1H | no change | no change | 0.06 | -0.31 | inactive
EEF2KMT | no change | no change | -1.56 | 4.03 | inactive
OR2T34 | no change | no change | -1.64 | 2.06 | inactive
GLO1 | no change | no change | 0.06 | -1.16 | inactive
LOXL2 | no change | no change | -1.73 | 1.9 | inactive
ALDH18A1 | no change | no change | 0.01 | -0.31 | inactive
CMTM6 | no change | no change | -0.46 | -0.4 | inactive
GCSAM | no change | no change | 1.17 | -0.23 | inactive
SUN5 | no change | no change | -0.19 | 2.16 | inactive
SH3BGRL | no change | no change | -0.76 | 0.35 | inactive
MSRB2 | no change | no change | 0.8 | -0.22 | inactive
LONRF1 | no change | no change | 1.5 | -0.1 | inactive
AMIGO3 | no change | no change | 1.56 | -0.76 | inactive
NPTXR | no change | no change | -0.86 | 0.98 | inactive
THEM5 | no change | no change | 0.06 | 0.94 | inactive
KIR3DL2 | no change | no change | 1.25 | -0.14 | inactive
E2F4 | no change | no change | 0.94 | -0.76 | inactive
RNF113B | no change | no change | -2.04 | 4.44 | inactive
C1orf162 | no change | no change | -1.25 | -1.14 | inactive
ZSWIM8 | no change | no change | -1.25 | -0.63 | inactive
KIF21A | no change | no change | -1.98 | -0.6 | inactive
PLIN4 | no change | no change | 0.44 | -0.42 | inactive
GABARAP | no change | no change | 0.2 | -0.91 | inactive
HSPA1A | no change | no change | 0.48 | 2.24 | inactive
EGF | no change | no change | 0.06 | 3.11 | inactive
NDUFS8 | no change | no change | 0.18 | -0.02 | inactive
OR6S1 | no change | no change | 2.12 | 0.02 | inactive
RFX6 | no change | no change | 0.06 | -1.11 | inactive
ZNF570 | no change | no change | -0.05 | -1.2 | inactive
NFE4 | no change | no change | -1.17 | -0.75 | inactive
RASGRP3 | no change | no change | 0.03 | -0.76 | inactive
